Source: PubChem BioAssay AID2202234 (NCATS, 2025).

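HNT-34 acute myeloid leukemia cells exposed to compounds for 48 h, with cell viability measured by CellTiter-Glo luminescence. Each compound was run as a dilution series that mostly topped out at 46 µM. The value is the concentration giving half of the fitted maximal loss of viability; smaller values mean stronger inhibitors. Calls come from the fitted dose curve, and inconclusive marks inhibition that is small, poorly fitted or seen only at the highest dose.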

Values are in µM. Every entry below has the call inconclusive. Only part of the assay is shown, chiefly results filed as inconclusive. Potencies fitted to partial, single-point or poorly fitting curves are rough. Some entries filed as inconclusive have a full curve.

structure	Potency (µM)	curve as filed
CN1CCC(=C2c3ccccc3C=Cc3ccccc32)CC1	23.47	inhibitor, partial curve
COc1cccc2c1C(=O)c1c(O)c3c(c(O)c1C2=O)C[C@@](O)(C(=O)CO)CC3OC1CC(N2CCOC(OC)C2)C(O)C(C)O1 (stereo partly shown)	0.0053	inhibitor, full curve
CC1=C(C(=O)Nc2cc3cn[nH]c3cc2F)C(c2ccc(Cl)cc2F)N=C(c2ccnc(Cl)c2)N1 (stereo not shown)	2.633	inhibitor, full curve
C[C@H](c1ccc(F)cc1CCCC(=O)O)N(c1cc(F)ccc1F)S(=O)(=O)c1ccc(Cl)cc1	10.48	inhibitor, partial curve, poor fit
O=C1Nc2ccc(Cl)cc2[C@@](C#CC2CC2)(C(F)(F)F)O1	20.92	inhibitor, partial curve
C[C@@]1(c2ncncc2F)NC(=O)c2cc(-c3cn[nH]c3)ccc21	26.33	inhibitor, single point
C[C@@H]1CC2C3C[C@H](F)C4=CC(=O)C=C[C@]4(C)[C@@]3(F)[C@@H](O)C[C@]2(C)[C@@]1(OC(=O)c1ccco1)C(=O)SCF (stereo partly shown)	26.33	inhibitor, single point
CC1CCC(C(=O)N(c2cc(C#CC(C)(C)C)sc2C(=O)O)C2CCC(O)CC2)CC1 (stereo not shown)	23.47	inhibitor, partial curve
O=C(CCc1ccc(O)cc1)c1c(O)cc(O)cc1O	37.2	inhibitor, partial curve, poor fit
O=C(O)Cc1cccc(OCCCN(Cc2cccc(C(F)(F)F)c2Cl)CC(c2ccccc2)c2ccccc2)c1	33.15	inhibitor, single point
CNS(=O)(=O)Nc1nccc(Cc2c(C)c3ccc(Oc4ncccn4)cc3oc2=O)c1F	0.4683	inhibitor, full curve
C[C@@H]1CN(CC(=O)Nc2ccc3c(c2)Cc2cccc(-c4cc(=O)cc(N5CCOCC5)o4)c2S3)C[C@H](C)O1	23.47	inhibitor, single point
Cc1nc(C)c(CN2CCN(C(c3ccc(F)cc3)c3ccc(F)cc3)CC2)nc1C	16.62	inhibitor, partial curve
CN(C)C(=O)c1ccc(S(=O)(=O)c2ccc(NC(=O)[C@@](C)(O)C(F)(F)F)c(Cl)c2)cc1	16.62	inhibitor, partial curve
CNC(=O)Cn1cc(-c2ccc3c(c2)C(F)CC32NC(=O)N(CC(=O)N(Cc3ccc(F)cc3)[C@@H](C)C(F)(F)F)C2=O)cn1 (stereo partly shown)	20.92	inhibitor, partial curve
Oc1cccc(-c2nc(N3CCOCC3)c3oc4ncccc4c3n2)c1	0.6615	inhibitor, full curve
CC(C)c1nn(-c2c(Cl)cccc2Cl)c2nc(Cc3ccc(OCCO)cc3)[nH]c(=O)c12	0.0934	inhibitor, full curve
COc1ccc(-c2cc(=O)c3c(O)cc(O)cc3o2)cc1O	16.62	inhibitor, partial curve
COc1cc(F)ccc1-c1ncnc(Nc2cccc(CS(C)(=N)=O)c2)n1 (stereo not shown)	0.7422	inhibitor, full curve
CNC(=O)c1ccc(C)c(-n2c(C)cc(OCc3ccc(F)cc3F)c(Br)c2=O)c1	37.2	inhibitor, partial curve, poor fit
CC(=O)C1CCC2C3CCC4=CC(=O)CCC4(C)C3CCC12C (stereo not shown)	23.47	inhibitor, single point
O=C1NC(=O)/C(=C/c2cccc(C(F)(F)F)c2)S1	18.64	inhibitor, partial curve, poor fit
COc1ccc(C(=O)N2CCN(c3ccc4c(c3)CCC(=O)N4)CC2)cc1OC	37.2	inhibitor, partial curve, poor fit
CS(=O)(=O)N1CCc2c(-c3cnc(N)nc3)nc(N3CCOCC3)nc21	3.72	inhibitor, partial curve
CCn1c(-c2nonc2N)nc2cnc(Oc3cccc(NC(=O)c4ccc(OCCN5CCOCC5)cc4)c3)cc21	0.372	inhibitor, full curve
O=C(CCNC(=O)c1ccc(OC(F)(F)F)cc1)N[C@@H]1CCCc2ccccc21	0.0026	inhibitor, full curve, poor fit
COc1cccc(Nc2c(C(N)=O)cnc3c(C)cc(S(=O)(=O)c4cccc(C(=O)N(C)C)c4)cc23)c1	13.2	inhibitor, partial curve
c1ccc2[nH]c(-c3cscn3)nc2c1	18.64	inhibitor, partial curve, poor fit
O=C1NC(=O)/C(=C/c2ccc3c(c2)OC(F)(F)O3)S1	37.2	inhibitor, single point
N#CCC1(n2cc(-c3ncnc4[nH]ccc34)cn2)CN(C2CCN(C(=O)c3ccnc(C(F)(F)F)c3F)CC2)C1	11.76	inhibitor, partial curve
Nc1ncnc2nc(-c3ccc(N4CCOCC4)nc3)cc(-c3cccc(Br)c3)c12	18.64	inhibitor, partial curve
Cc1c(NC(=O)c2cc(C(N)=O)nc3cc(F)ccc23)c(C(F)(F)F)nn1Cc1ccc(C#N)cc1	26.33	inhibitor, single point
Cc1cnc(CNC(=O)c2c(=O)c3ccc(N4CCCN(C)CC4)nc3n3c2sc2ccccc23)cn1	1.913	inhibitor, partial curve
Oc1ccc(-c2nc(-c3ccc(F)cc3)c(-c3ccncc3)[nH]2)cc1	23.47	inhibitor, partial curve
C[C@@H]1CC(=O)Nc2cccc(-c3cnn(C(C)(C)C)c3)c2N1	16.62	inhibitor, partial curve
COC[C@@H](c1ccc(C(F)(F)F)cc1)N1CCN(C2(C)CCN(C(=O)c3c(C)ncnc3C)CC2)C[C@@H]1C	37.2	inhibitor, partial curve, poor fit
Cc1ncc(Cl)cc1NCc1ccc(C(=O)NC(CC2CCCC2)C(=O)NC2CC2)s1 (stereo not shown)	23.47	inhibitor, partial curve
CCCc1cc(C)[nH]c(=O)c1CNC(=O)c1cc(-c2ccnc(N3CCN(C)CC3)c2)cc2c1cnn2C(C)C	29.55	inhibitor, single point
O=C1NC(=O)C(c2ccccc2[N+](=O)[O-])=C1Nc1ccc(O)c(Cl)c1	29.55	inhibitor, single point
CN1CCN(c2ccc(Nc3ncc4cc(C#N)c(=O)n(C5CCCC5)c4n3)cc2)CC1	1.481	inhibitor, full curve
CCNC(=O)c1noc(-c2cc(C(C)C)c(O)cc2O)c1-c1ccc(CN2CCOCC2)cc1	0.0235	inhibitor, full curve
Nc1[nH]nc2nnc(-c3c(-c4ccccc4)nn4ccccc34)cc12	18.64	inhibitor, partial curve
CCN(CC)CCCCNc1nc2cc(Cl)c(Cl)cc2nc1-c1ccc(-c2cccs2)s1	29.55	inhibitor, single point
Cc1cnc(Nc2ccc(F)cc2Cl)nc1-c1c[nH]c(C(=O)NC(CO)c2cccc(Cl)c2)c1 (stereo not shown)	7.422	inhibitor, partial curve
C=C1/C(=C\C=C2/CCC[C@]3(C)[C@@H]([C@H](C)CCCC(C)(C)O)CC[C@@H]23)C[C@@H](O)C[C@@H]1O	37.2	inhibitor, single point
O=c1cc(-c2cccc3c2Sc2ccccc2S3)oc(N2CCOCC2)c1	20.92	inhibitor, partial curve
COc1ccc(COc2ccc(Cc3cnc(N)nc3N)cc2OC)cc1	2.633	inhibitor, full curve, poor fit
CCC(C)(C)C(=O)O[C@H]1C[C@@H](C)C=C2C=C[C@H](C)[C@H](CC[C@@H]3C[C@@H](O)CC(=O)O3)[C@H]21	18.64	inhibitor, partial curve, poor fit
CC(C)NC(=O)COc1cccc(-c2nc(Nc3ccc4[nH]ncc4c3)c3ccccc3n2)c1	10.48	inhibitor, full curve
Oc1cc(O)cc(/C=C/c2ccc(O)c(O)c2)c1	18.64	inhibitor, partial curve
Cn1cc(/C=C/C(=O)c2cccc(F)c2)cc1/C=C/C(=O)NO	2.347	inhibitor, full curve

Some entries from above, unchanged:

{"structure": "Cn1cc(/C=C/C(=O)c2cccc(F)c2)cc1/C=C/C(=O)NO", "Potency (µM)": "2.347", "curve as filed": "inhibitor, full curve"}
{"structure": "CC1CCC(C(=O)N(c2cc(C#CC(C)(C)C)sc2C(=O)O)C2CCC(O)CC2)CC1", "stereo": "stereo not shown", "Potency (µM)": "23.47", "curve as filed": "inhibitor, partial curve"}
{"structure": "CCNC(=O)c1noc(-c2cc(C(C)C)c(O)cc2O)c1-c1ccc(CN2CCOCC2)cc1", "Potency (µM)": "0.0235", "curve as filed": "inhibitor, full curve"}
{"structure": "CS(=O)(=O)N1CCc2c(-c3cnc(N)nc3)nc(N3CCOCC3)nc21", "Potency (µM)": "3.72", "curve as filed": "inhibitor, partial curve"}
{"structure": "C[C@@H]1CC2C3C[C@H](F)C4=CC(=O)C=C[C@]4(C)[C@@]3(F)[C@@H](O)C[C@]2(C)[C@@]1(OC(=O)c1ccco1)C(=O)SCF", "stereo": "stereo partly shown", "Potency (µM)": "26.33", "curve as filed": "inhibitor, single point"}